For one substance, binding results are on record in publication PMC6339786.

Chains of the proteins cited; added tags and fusions are not shown. Residues count along the entry.
UniProt P19785: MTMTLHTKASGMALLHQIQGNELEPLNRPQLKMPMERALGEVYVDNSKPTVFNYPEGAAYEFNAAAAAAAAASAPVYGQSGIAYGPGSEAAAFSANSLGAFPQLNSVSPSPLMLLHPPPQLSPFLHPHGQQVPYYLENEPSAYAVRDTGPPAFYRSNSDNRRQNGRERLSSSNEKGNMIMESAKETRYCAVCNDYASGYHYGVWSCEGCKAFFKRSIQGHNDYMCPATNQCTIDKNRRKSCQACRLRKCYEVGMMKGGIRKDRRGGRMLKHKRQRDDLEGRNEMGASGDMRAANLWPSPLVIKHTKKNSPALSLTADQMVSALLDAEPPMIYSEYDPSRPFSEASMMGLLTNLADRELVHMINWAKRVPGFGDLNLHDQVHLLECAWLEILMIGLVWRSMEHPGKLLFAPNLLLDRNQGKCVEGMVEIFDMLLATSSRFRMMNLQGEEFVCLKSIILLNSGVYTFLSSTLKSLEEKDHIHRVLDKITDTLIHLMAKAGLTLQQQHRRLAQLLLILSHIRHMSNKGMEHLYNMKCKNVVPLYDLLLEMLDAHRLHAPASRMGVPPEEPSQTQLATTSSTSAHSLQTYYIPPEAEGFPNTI
UniProt Q60751, residues 31-1373: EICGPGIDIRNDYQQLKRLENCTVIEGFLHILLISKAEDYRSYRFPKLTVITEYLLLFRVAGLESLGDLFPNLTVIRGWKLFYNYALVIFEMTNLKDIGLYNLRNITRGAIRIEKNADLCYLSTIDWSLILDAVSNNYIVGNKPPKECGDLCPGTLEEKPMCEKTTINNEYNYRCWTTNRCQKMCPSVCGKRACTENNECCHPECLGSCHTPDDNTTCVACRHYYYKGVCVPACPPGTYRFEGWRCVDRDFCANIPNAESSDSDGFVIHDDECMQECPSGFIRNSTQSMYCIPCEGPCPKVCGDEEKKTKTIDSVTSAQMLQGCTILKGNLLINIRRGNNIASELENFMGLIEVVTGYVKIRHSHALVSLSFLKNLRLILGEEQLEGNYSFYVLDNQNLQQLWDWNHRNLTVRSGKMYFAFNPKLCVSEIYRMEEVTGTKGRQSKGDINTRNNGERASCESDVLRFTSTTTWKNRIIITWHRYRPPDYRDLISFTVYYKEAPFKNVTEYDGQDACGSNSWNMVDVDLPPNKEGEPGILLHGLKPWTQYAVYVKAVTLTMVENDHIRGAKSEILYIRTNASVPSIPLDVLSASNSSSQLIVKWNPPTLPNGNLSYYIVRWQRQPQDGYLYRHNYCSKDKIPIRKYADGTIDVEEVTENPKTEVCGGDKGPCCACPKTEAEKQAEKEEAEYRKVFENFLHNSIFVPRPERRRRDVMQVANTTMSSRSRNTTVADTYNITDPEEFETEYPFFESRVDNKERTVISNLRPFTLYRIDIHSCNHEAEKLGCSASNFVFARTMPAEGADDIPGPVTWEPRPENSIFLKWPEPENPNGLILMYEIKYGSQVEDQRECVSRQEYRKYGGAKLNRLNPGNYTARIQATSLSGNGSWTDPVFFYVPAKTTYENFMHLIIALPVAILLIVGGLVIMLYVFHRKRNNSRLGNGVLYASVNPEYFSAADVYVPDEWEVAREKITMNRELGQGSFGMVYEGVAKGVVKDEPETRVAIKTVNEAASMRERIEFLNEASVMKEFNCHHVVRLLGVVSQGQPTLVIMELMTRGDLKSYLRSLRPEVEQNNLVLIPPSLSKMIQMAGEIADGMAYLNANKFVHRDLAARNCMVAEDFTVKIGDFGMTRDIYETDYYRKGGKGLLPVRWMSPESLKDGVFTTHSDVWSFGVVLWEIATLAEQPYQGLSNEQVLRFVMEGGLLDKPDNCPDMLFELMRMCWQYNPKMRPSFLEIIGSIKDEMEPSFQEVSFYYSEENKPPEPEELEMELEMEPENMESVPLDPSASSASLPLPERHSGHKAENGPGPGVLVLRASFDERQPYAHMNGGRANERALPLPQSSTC

Assay [1] addresses E2 α receptor (ERα) (mouse (endogenous in brain endothelial cells)) (UniProt P19785). The experiment in a line: co-IP; immunoprecipitation with anti-ERα, blot for IGF-IR; lysate of cultured brain endothelial cells from young (2 month-old) female mice, in response to E2; normalised with the antibody used to pull down; non-immune serum as negative control.
For assay [2] the target is unchanged. The experiment in a line: condition: only brain endothelial cells from middle-aged (9 month-old) female mice; co-IP; immunoprecipitation with anti-ERα, blot for IGF-IR; lysate of cultured brain endothelial cells from middle-aged (9 month-old) female mice, in response to E2; normalised with the antibody used to pull down; non-immune serum as negative control.

These are yes or no findings as the source states them, for the method shown. In cells and extracts the contact can be indirect. Some results given as binding are weak or reduced against the parent protein; the word gives no strength.

On to “IGF-I receptor (IGF-IR) (from UniProt Q60751 31-1373)”, for which the binding entry in assay [1] is recorded as “binds”; in assay [2] it was “no binding”.
